# According to US20070134261A1, “Effectors of innate immunity” (priority 2001, published 2007):
# Part of at least one peptide drawing is inferred or uncertain, most often the ends. No end group written: not given here.
# Test system: A549 epithelial cells
# Assay: Human Operon arrays (PRHU04-S1) of A549 cells treated with peptide alone (Tables 31-37, 53)
# Conditions: peptide 50 μg/ml, 4 h, Table 36
sequence,measurement,value
KMKSFAKMLMLALKKVLKVLTTALTLKAGLPS [ID 43],"AB014615 fibroblast growth factor 8, expression Ratio ID#:ctrl",8.5
same,"AB015349 unknown, expression Ratio ID#:ctrl",3.7
same,"AB017016 brain-specific protein p25 alpha, expression Ratio ID#:ctrl",3.4
same,"AB022847 unknown, expression Ratio ID#:ctrl",4.5
same,"AB033080 cell cycle progression 8 protein, expression Ratio ID#:ctrl",5.9
same,"AB037744 unknown, expression Ratio ID#:ctrl",2.7
same,"AC005162 probable carboxypeptidase precursor, expression Ratio ID#:ctrl",6.8
same,"AF025840 polymerase epsilon 2, expression Ratio ID#:ctrl",2.0
same,"AF045941 sciellin, expression Ratio ID#:ctrl",4.8
same,"AF049703 E74-like factor 5, expression Ratio ID#:ctrl",3.3
same,"AF053712 TNF superfamily_member 11, expression Ratio ID#:ctrl",13.4
same,"AF061836 Ras association domain family 1, expression Ratio ID#:ctrl",11.1
same,"AF083898 neuro-oncological ventral antigen 2, expression Ratio ID#:ctrl",2.2
same,"AF093670 peroxisomal biogenesis factor, expression Ratio ID#:ctrl",2.6
same,"AF105424 myosin heavy polypeptide-like, expression Ratio ID#:ctrl",4.4
same,"AF131806 unknown, expression Ratio ID#:ctrl",5.7
same,"AF132495 CGI-133 protein, expression Ratio ID#:ctrl",2.6
same,"AF233442 ubiquitin specific protease, expression Ratio ID#:ctrl",2.7
same,"AF240467 TLR-7, expression Ratio ID#:ctrl",4.7
same,"AJ009771 ariadne_Drosophila_homolog of, expression Ratio ID#:ctrl",15.9
same,"AJ012008 dimethylarginine dimethylaminohydrolase 2, expression Ratio ID#:ctrl",3.2
same,"AK000102 unknown, expression Ratio ID#:ctrl",5.2
same,"AK000358 microfibrillar-associated protein 3, expression Ratio ID#:ctrl",3.5
same,"AK001135 Sec23-interacting protein p125, expression Ratio ID#:ctrl",3.3
same,"AK001864 unknown, expression Ratio ID#:ctrl",4.6
same,"AL035397 unknown, expression Ratio ID#:ctrl",10.6
same,"AL050139 unknown, expression Ratio ID#:ctrl",3.3
same,"AL133114 DKFZP586P2421 protein, expression Ratio ID#:ctrl",4.9
same,"AL133612 unknown, expression Ratio ID#:ctrl",5.2
same,"AL133654 unknown, expression Ratio ID#:ctrl",2.5
same,"AL137502 unknown, expression Ratio ID#:ctrl",7.3
same,"AL137513 unknown, expression Ratio ID#:ctrl",3.8
same,"D38449 putative G protein coupled receptor, expression Ratio ID#:ctrl",6.7
same,"J04599 biglycan, expression Ratio ID#:ctrl",4.0
same,"L75847 zinc finger protein, expression Ratio ID#:ctrl",4.0
same,"M26665 histatin 3, expression Ratio ID#:ctrl",4.6
same,"M28825 CD1A antigen, expression Ratio ID#:ctrl",2.0
same,"NM_00696 zinc finger protein, expression Ratio ID#:ctrl",12.3
same,"NM_004909 taxol resistance associated gene 3, expression Ratio ID#:ctrl",6.5
same,"U05227 GTP-binding protein, expression Ratio ID#:ctrl",3.1
same,"U27330 fucosyltransferase 5, expression Ratio ID#:ctrl",24.5
same,"U27655 regulator of G-protein signaling 3, expression Ratio ID#:ctrl",2.9
same,"U35246 vacuolar protein sorting 45A, expression Ratio ID#:ctrl",2.6
same,"U66669 3-hydroxyisobutyryl-Coenzyme A hydrolase, expression Ratio ID#:ctrl",5.2
same,"U70426 regulator of G-protein signaling 16, expression Ratio ID#:ctrl",5.3
same,"U75330 neural cell adhesion molecule 2, expression Ratio ID#:ctrl",13.2
same,"U80770 unknown, expression Ratio ID#:ctrl",6.6
same,"U90908 unknown, expression Ratio ID#:ctrl",3.4
same,"U92980 unknown, expression Ratio ID#:ctrl",4.8
same,"V00522 MHC class II DR beta 3, expression Ratio ID#:ctrl",4.7
same,"X05978 cystatin A, expression Ratio ID#:ctrl",9.4
same,"X55740 CD73, expression Ratio ID#:ctrl",2.9
same,"X61177 IL-5R alpha, expression Ratio ID#:ctrl",9.8
same,"X74837 mannosidase_alpha class 1A, expression Ratio ID#:ctrl",23.6
same,"X82153 cathepsin K, expression Ratio ID#:ctrl",4.8
same,"X97267 protein tyrosine phosphatase, expression Ratio ID#:ctrl",2.4
same,"Z11933 POU domain class 3 TF 2, expression Ratio ID#:ctrl",3.6
KNKAFAKMLMKALKKVTTAAKPLTG [ID 44],"AB014615 fibroblast growth factor 8, expression Ratio ID#:ctrl",3.2
same,"AB015349 unknown, expression Ratio ID#:ctrl",8.0
same,"AB017016 brain-specific protein p25 alpha, expression Ratio ID#:ctrl",3.1
same,"AB022847 unknown, expression Ratio ID#:ctrl",2.8
same,"AB033080 cell cycle progression 8 protein, expression Ratio ID#:ctrl",4.3
same,"AB037744 unknown, expression Ratio ID#:ctrl",3.0
same,"AC005162 probable carboxypeptidase precursor, expression Ratio ID#:ctrl",18.7
same,"AF025840 polymerase epsilon 2, expression Ratio ID#:ctrl",2.1
same,"AF045941 sciellin, expression Ratio ID#:ctrl",6.9
same,"AF049703 E74-like factor 5, expression Ratio ID#:ctrl",2.7
same,"AF053712 TNF superfamily_member 11, expression Ratio ID#:ctrl",10.6
same,"AF061836 Ras association domain family 1, expression Ratio ID#:ctrl",18.8
same,"AF083898 neuro-oncological ventral antigen 2, expression Ratio ID#:ctrl",3.6
same,"AF093670 peroxisomal biogenesis factor, expression Ratio ID#:ctrl",4.3
same,"AF105424 myosin heavy polypeptide-like, expression Ratio ID#:ctrl",2.3
same,"AF131806 unknown, expression Ratio ID#:ctrl",7.0
same,"AF132495 CGI-133 protein, expression Ratio ID#:ctrl",2.8
same,"AF233442 ubiquitin specific protease, expression Ratio ID#:ctrl",3.5
same,"AF240467 TLR-7, expression Ratio ID#:ctrl",7.7
same,"AJ009771 ariadne_Drosophila_homolog of, expression Ratio ID#:ctrl",2.5
same,"AJ012008 dimethylarginine dimethylaminohydrolase 2, expression Ratio ID#:ctrl",6.2
same,"AK000102 unknown, expression Ratio ID#:ctrl",4.1
same,"AK000358 microfibrillar-associated protein 3, expression Ratio ID#:ctrl",5.2
same,"AK001135 Sec23-interacting protein p125, expression Ratio ID#:ctrl",14.4
same,"AK001864 unknown, expression Ratio ID#:ctrl",3.2
same,"AL035397 unknown, expression Ratio ID#:ctrl",4.6
same,"AL050139 unknown, expression Ratio ID#:ctrl",3.0
same,"AL133114 DKFZP586P2421 protein, expression Ratio ID#:ctrl",5.3
same,"AL133612 unknown, expression Ratio ID#:ctrl",3.0
same,"AL133654 unknown, expression Ratio ID#:ctrl",2.5
same,"AL137502 unknown, expression Ratio ID#:ctrl",3.9
same,"AL137513 unknown, expression Ratio ID#:ctrl",2.3
same,"D38449 putative G protein coupled receptor, expression Ratio ID#:ctrl",9.1
same,"J04599 biglycan, expression Ratio ID#:ctrl",4.8
same,"L75847 zinc finger protein, expression Ratio ID#:ctrl",3.0
same,"M26665 histatin 3, expression Ratio ID#:ctrl",3.5
same,"M28825 CD1A antigen, expression Ratio ID#:ctrl",4.6
same,"NM_00696 zinc finger protein, expression Ratio ID#:ctrl",29.2
same,"NM_004909 taxol resistance associated gene 3, expression Ratio ID#:ctrl",3.2
same,"U05227 GTP-binding protein, expression Ratio ID#:ctrl",2.2
same,"U27330 fucosyltransferase 5, expression Ratio ID#:ctrl",8.2
same,"U27655 regulator of G-protein signaling 3, expression Ratio ID#:ctrl",4.9
same,"U35246 vacuolar protein sorting 45A, expression Ratio ID#:ctrl",4.5
same,"U66669 3-hydroxyisobutyryl-Coenzyme A hydrolase, expression Ratio ID#:ctrl",2.3
same,"U70426 regulator of G-protein signaling 16, expression Ratio ID#:ctrl",3.1
same,"U75330 neural cell adhesion molecule 2, expression Ratio ID#:ctrl",3.3
same,"U80770 unknown, expression Ratio ID#:ctrl",3.1
same,"U90908 unknown, expression Ratio ID#:ctrl",7.8
same,"U92980 unknown, expression Ratio ID#:ctrl",2.3
same,"V00522 MHC class II DR beta 3, expression Ratio ID#:ctrl",2.5
same,"X05978 cystatin A, expression Ratio ID#:ctrl",2.2
same,"X55740 CD73, expression Ratio ID#:ctrl",3.2
same,"X61177 IL-5R alpha, expression Ratio ID#:ctrl",8.1
same,"X74837 mannosidase_alpha class 1A, expression Ratio ID#:ctrl",16.3
same,"X82153 cathepsin K, expression Ratio ID#:ctrl",4.4
same,"X97267 protein tyrosine phosphatase, expression Ratio ID#:ctrl",4.2
same,"Z11933 POU domain class 3 TF 2, expression Ratio ID#:ctrl",4.3
